Results reported in publication PMC12785316.
These are yes or no findings as the source states them, for the method shown. In cells and extracts the contact can be indirect. A yes stands for co-enrichment or nearness to the bait. Other partners may have been found. Tags and fused reporters may be left off the sequences shown.

T1: PoSnf1 (Penicillium oxalicum Snf1 kinase, catalytic alpha subunit of the Snf1 kinase complex) with C-terminal HA-FLAG tag (Penicillium oxalicum) (UniProt S7ZEF0)
T1 sequence: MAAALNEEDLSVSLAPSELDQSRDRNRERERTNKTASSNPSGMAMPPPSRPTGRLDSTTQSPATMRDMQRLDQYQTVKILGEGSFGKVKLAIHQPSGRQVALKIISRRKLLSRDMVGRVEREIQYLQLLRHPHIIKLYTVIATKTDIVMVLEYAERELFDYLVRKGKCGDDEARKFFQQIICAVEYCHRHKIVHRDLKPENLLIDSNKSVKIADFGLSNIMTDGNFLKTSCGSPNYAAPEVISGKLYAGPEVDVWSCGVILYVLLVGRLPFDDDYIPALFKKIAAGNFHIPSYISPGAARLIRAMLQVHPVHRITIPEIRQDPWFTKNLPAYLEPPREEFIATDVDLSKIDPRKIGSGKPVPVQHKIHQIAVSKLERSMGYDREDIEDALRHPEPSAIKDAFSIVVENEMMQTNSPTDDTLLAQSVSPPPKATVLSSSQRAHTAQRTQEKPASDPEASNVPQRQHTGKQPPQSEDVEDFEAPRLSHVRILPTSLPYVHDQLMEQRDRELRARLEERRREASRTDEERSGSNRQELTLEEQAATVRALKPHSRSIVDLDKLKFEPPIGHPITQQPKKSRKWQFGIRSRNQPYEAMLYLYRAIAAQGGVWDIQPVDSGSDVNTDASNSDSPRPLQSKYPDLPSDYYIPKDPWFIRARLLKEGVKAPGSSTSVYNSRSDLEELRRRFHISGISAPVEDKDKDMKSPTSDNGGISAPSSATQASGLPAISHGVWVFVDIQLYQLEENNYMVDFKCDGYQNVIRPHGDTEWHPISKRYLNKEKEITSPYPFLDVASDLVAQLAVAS

B1: PDE_02615 (uncharacterized protein), endogenous (protein, UniProt S7ZG90 1-128)
chain: MGVFLFGKPQRATPLGNRGLAEMLRFLGMVRRPEIAREGHHYRVIIICSVIPRAWKTGGWLRERKRRDARCNGGAQRKSGGVSSAQLAPDRSKSQRFKFAERMRFHLGSTGRNAGQAYWAKQIQNDGE
B2: PoGal83 (beta subunit of the Snf1 kinase complex), endogenous (protein, UniProt S8AWH1 1-447)
chain: MGNNPSKGPSGDGPDGHVHHGSAERKVARRTSLNAMRHQKATAADPSATRETAAGHPANYQGSPSHRRHSRNPPHSPGRSMSKPSGPDGRLQDYAQGRKSLPEDQSNPMQVPSARQGAGRDPVAPSGPPLSSYYSASQHLQRPPRMPLPIGDATTTPGSPISGPEDSHIQSMPADQLLKEQLEKGVSNLSSVTLDGEEIVDELPSYASSGVGKAVPTYIEWSGPGQKVYVTGTFVNWEKKFKLHRGDGENATMSTTLNLRPGTHHLKFIVDGEMRASDTLPTAVDFTNHLVNYIEISADDRQDSIPSGIQASQTVSDNVNNDETTDEPQNKEPEEEVPPGNFGRAIPQFLADLDKEEDSTAYIQAANVISDTPTPPSLPLFLGKSILNSNTPTKDDSSVLNYPNHTVLNHLATSSIKNGVLATSVTTRYKRKYVTSILYKPTGDIAE
B3: PoSnf4 (gamma subunit of the Snf1 kinase complex), endogenous (protein, UniProt S7ZPW3 1-357)
chain: MTKAEDTRPHLAGPLNSIGHAPFVQPSSYLRPPMSSQSERPIDVEERQGLRAIRNFLKVRTSYDVLPLSFRLIIFDTGLSVKESLNILIQNGIVSAPLWDSKASKFAGLLTTSDYINVIQYYFQNPAALDQIDQFRLDSLREVEKALGVAPPETISIDPERPLYEACRRMLESRARRIPLVTNDSQTDRSHVLSVITQYRILKFVAVNVGDTQKLRRPLGELLLGTYNNIATASMDTPVIDVIHILVERSISSVPILNSEGVVYNVFEAVDVIALIRGGVYDDLSLTVGEVLKKRSPEFPGIYTCSLNDGLDTIFDTIRKSRVHRLVVVDEHFKLKGVLTLSDILHYILLEGETDEV

Biological target: T1, PoSnf1 (Penicillium oxalicum Snf1 kinase, catalytic alpha subunit of the Snf1 kinase complex) with C-terminal HA-FLAG tag (Penicillium oxalicum)
Test: affinity purification with mass spectrometry; tandem affinity purification from mycelial lysate of the Snf1-TAP strain grown in VMMG: ANTI-FLAG M2 resin overnight at 4 °C, elution with 3×FLAG peptide, then ANTI-HA resin, elution with 8 M urea; LC-MS/MS; untagged WT as control, two biological replicates

binding, binds:
B1
B2
B3
